# Several values for one entry are separate records, joined by “and”; a condition that tells them apart may be missing. Equal values may be shown once. Further values from the same series stand in other lists.
# Tested on: thromboxane A2 challenged PAH-minipig
# Test: Haemodynamics in the anesthetized thromboxane challenged minipig, intratracheal dry powder (PAP, BP)
# Assay type: in vivo, Göttingen Minipigs
# Details: 375 μg/kg i.t.
# Description: Healthy Göttingen Minipigs® Ellegaard (Ellegaard, Denmark) of both sexes and having a weight of 2-6 kg were used. The animals were sedated by i.m. administration of about 25 mg/kg ketamine and about 10 mg/kg azaperone. Anaesthesia was initiated by i.v. administration of about 2 mg/kg ketamine and about 0.3 mg/kg midazolam. Maintenance of anaesthesia was by i.v. administration of about 7.5-30 mg/kg/h ketamine and about 1-4 mg/kg/h midazolam (rate of infusion 1-4 ml/kg/h) and about 150 μg/kg/h pancuronium bromide (for example Pancuronium-Actavis). After intubation, the animals were ventilated by the ventilator at a constant respiratory volume (10-12 ml/kg, 35 breaths/min; Avea®, Viasys Healthcare, USA, or Engström Carestation, GE Healthcare, Freiburg, Germany) such that an end-tidal CO2 concentration of about 5% was achieved. Ventilation was performed with room air, enriched with about 40% oxygen (normoxia). For the measurement of the haemodynamic parameters such as pulmonary arterial pressure (PAP), blood pressure (BP) and heart rate (HR), catheters were inserted into the carotid artery to measure the blood pressure, and a Swan-Ganz® catheter was introduced in a flow-directed manner via the jugular vein into the pulmonary artery. The haemodynamic signals were recorded and evaluated by means of pressure transducers (Combitransducer, B. Braun, Melsungen, Germany)/amplifiers and Ponemah® as data acquisition software.
# As reference pure Lactose vehicle was applied in the beginning of each experiment.
smiles,measurement,setting,value
"O=C(O)c1ccc(CCN(CCc2ccccc2OCc2ccc(-c3ccc(C(F)(F)F)cc3)cc2Cl)[C@H]2CCCc3nc(C(=O)O)ccc32)cc1 [example 2, (5S)—{[2-(4-Carboxyphenyl)ethyl][2-(2-{[3-chloro-4′-(trifluoromethyl)biphenyl-4-yl]methoxy}phenyl)-ethyl]amino}-5,6,7,8-tetrahydroquinoline-2-carboxylic acid as Monohydrate II]","BP, % changes vs. prevalues",time 50 min,100.0%
"O.O=C(O)c1ccc(CCN(CCc2ccccc2OCc2ccc(-c3ccc(C(F)(F)F)cc3)cc2Cl)[C@H]2CCCc3nc(C(=O)O)ccc32)cc1.O=C(O)c1ccc(CCN(CCc2ccccc2OCc2ccc(-c3ccc(C(F)(F)F)cc3)cc2Cl)[C@H]2CCCc3nc(C(=O)O)ccc32)cc1 [example 6a, (5S)—{[2-(4-Carboxyphenyl)ethyl][2-(2-{[3-chloro-4′-(trifluoromethyl)biphenyl-4-yl]methoxy}phenyl)-ethyl]amino}-5,6,7,8-tetrahydroquinoline-2-carboxylic acid semihydrate]","BP, % changes vs. prevalues",time 50 min,99.6% and 98.4% and 100.6%
same,"PAP, % changes vs. prevalues",time 50 min,99.3% and 98.7% and 98.9%
same,BP (mean),time −10 min,99 mmHg and 85 mmHg and 86 mmHg
same,PAP(mean),time −10 min,38.7 mmHg and 40.6 mmHg
"O.O.O.O=C(O)c1ccc(CCN(CCc2ccccc2OCc2ccc(-c3ccc(C(F)(F)F)cc3)cc2Cl)[C@H]2CCCc3nc(C(=O)O)ccc32)cc1.O=C(O)c1ccc(CCN(CCc2ccccc2OCc2ccc(-c3ccc(C(F)(F)F)cc3)cc2Cl)[C@H]2CCCc3nc(C(=O)O)ccc32)cc1 [example 6e, (5S)—{[2-(4-Carboxyphenyl)ethyl][2-(2-{[3-chloro-4′-(trifluoromethyl)biphenyl-4-yl]methoxy}phenyl)-ethyl]amino}-5,6,7,8-tetrahydroquinoline-2-carboxylic acid sesquihydrate]",PAP(mean),"time 20 min, sesquihydrate",37.4 mmHg and 39.8 mmHg
same,PAP(mean),"time 30 min, sesquihydrate",41.4 mmHg and 36.8 mmHg and 41.2 mmHg
same,BP (mean),"time 40 min, sesquihydrate",109 mmHg and 118 mmHg
same,PAP(mean),"time 40 min, sesquihydrate",41.0 mmHg and 37.4 mmHg and 41.3 mmHg
same,BP (mean),"time 50 min, sesquihydrate",101 mmHg and 114 mmHg and 119 mmHg
same,PAP(mean),"time 50 min, sesquihydrate",40.9 mmHg and 38.1 mmHg and 40.8 mmHg
same,BP (mean),time 60 min,102 mmHg
same,BP (mean),"time 60 min, sesquihydrate",116 mmHg and 118 mmHg
same,PAP(mean),"time 60 min, sesquihydrate",40.4 mmHg and 39.5 mmHg and 40.7 mmHg
same,BP (mean),time 70 min,99 mmHg
same,BP (mean),"time 70 min, sesquihydrate",111 mmHg and 117 mmHg
same,PAP(mean),"time 70 min, sesquihydrate",40.7 mmHg and 38.7 mmHg and 39.6 mmHg
same,BP (mean),"time 80 min, sesquihydrate",101 mmHg and 112 mmHg and 116 mmHg
same,PAP(mean),"time 80 min, sesquihydrate",36.5 mmHg and 37.6 mmHg and 35.4 mmHg
same,BP (mean),"time 90 min, sesquihydrate",101 mmHg and 114 mmHg and 115 mmHg
same,PAP(mean),"time 90 min, sesquihydrate",34.3 mmHg and 36.4 mmHg and 30.8 mmHg
same,BP (mean),"time 100 min, sesquihydrate",101 mmHg and 114 mmHg and 115 mmHg
same,PAP(mean),"time 100 min, sesquihydrate",32.3 mmHg and 35.7 mmHg and 28.6 mmHg
same,BP (mean),"time 110 min, sesquihydrate",99 mmHg and 120 mmHg and 114 mmHg
same,PAP(mean),"time 110 min, sesquihydrate",30.8 mmHg and 35.0 mmHg and 27.5 mmHg
same,BP (mean),time 120 min,99 mmHg
same,BP (mean),"time 120 min, sesquihydrate",121 mmHg and 114 mmHg
same,"BP, % changes vs. prevalues","time 120 min, sesquihydrate",104.6% and 96.1%
same,PAP(mean),"time 120 min, sesquihydrate",30.3 mmHg and 29.0 mmHg and 26.6 mmHg
same,BP (mean),time 130 min,100 mmHg
same,BP (mean),"time 130 min, sesquihydrate",122 mmHg and 114 mmHg
same,"BP, % changes vs. prevalues","time 130 min, sesquihydrate",100.4% and 105.5% and 96.1%
same,PAP(mean),"time 130 min, sesquihydrate",29.0 mmHg and 30.3 mmHg and 26.9 mmHg
same,"PAP, % changes vs. prevalues","time 130 min, sesquihydrate",76.4% and 66.8%
same,BP (mean),"time 140 min, sesquihydrate",101 mmHg and 121 mmHg and 115 mmHg
same,"BP, % changes vs. prevalues","time 140 min, sesquihydrate",101.4% and 104.6% and 96.9%
same,PAP(mean),"time 140 min, sesquihydrate",28.0 mmHg and 28.3 mmHg and 25.1 mmHg
same,"PAP, % changes vs. prevalues","time 140 min, sesquihydrate",67.3% and 71.4% and 62.2%
same,BP (mean),time 150 min,99 mmHg
same,BP (mean),"time 150 min, sesquihydrate",119 mmHg and 115 mmHg
same,"BP, % changes vs. prevalues","time 150 min, sesquihydrate",99.4% and 102.9% and 96.9%
same,PAP(mean),"time 150 min, sesquihydrate",25.8 mmHg and 30.8 mmHg and 25.3 mmHg
same,"PAP, % changes vs. prevalues","time 150 min, sesquihydrate",62.1% and 77.7% and 62.8%
same,BP (mean),time 160 min,99 mmHg
same,BP (mean),"time 160 min, sesquihydrate",123 mmHg and 114 mmHg
same,"BP, % changes vs. prevalues","time 160 min, sesquihydrate",99.4% and 106.3% and 96.1%
same,PAP(mean),"time 160 min, sesquihydrate",25.1 mmHg and 30.8 mmHg and 23.9 mmHg
same,"PAP, % changes vs. prevalues","time 160 min, sesquihydrate",60.4% and 77.7% and 59.3%
same,BP (mean),time 170 min,98 mmHg
same,BP (mean),"time 170 min, sesquihydrate",116 mmHg and 113 mmHg
same,"BP, % changes vs. prevalues","time 170 min, sesquihydrate",98.4% and 100.3% and 95.2%
same,PAP(mean),"time 170 min, sesquihydrate",25.5 mmHg and 30.6 mmHg and 24.6 mmHg
same,"PAP, % changes vs. prevalues","time 170 min, sesquihydrate",61.3% and 77.3% and 61.0%
same,BP (mean),time 180 min,99 mmHg
same,BP (mean),"time 180 min, sesquihydrate",117 mmHg and 116 mmHg
same,"BP, % changes vs. prevalues","time 180 min, sesquihydrate",99.4% and 101.1% and 97.7%
same,PAP(mean),"time 180 min, sesquihydrate",25.0 mmHg and 30.8 mmHg and 24.2 mmHg
same,"PAP, % changes vs. prevalues","time 180 min, sesquihydrate",60.0% and 77.6% and 60.1%
same,BP (mean),time 190 min,97 mmHg
same,BP (mean),"time 190 min, sesquihydrate",123 mmHg and 114 mmHg
same,"BP, % changes vs. prevalues","time 190 min, sesquihydrate",97.4% and 106.3% and 96.1%
same,PAP(mean),"time 190 min, sesquihydrate",24.3 mmHg and 32.9 mmHg and 23.6 mmHg
same,"PAP, % changes vs. prevalues","time 190 min, sesquihydrate",58.5% and 83.0%
same,BP (mean),time 200 min,97 mmHg
same,BP (mean),"time 200 min, sesquihydrate",119 mmHg and 114 mmHg
same,"BP, % changes vs. prevalues","time 200 min, sesquihydrate",97.4% and 102.9% and 96.1%
same,PAP(mean),"time 200 min, sesquihydrate",24.0 mmHg and 31.5 mmHg and 23.6 mmHg
same,"PAP, % changes vs. prevalues","time 200 min, sesquihydrate",57.6% and 79.4% and 58.5%
same,BP (mean),time 210 min,97 mmHg
same,BP (mean),"time 210 min, sesquihydrate",119 mmHg and 112 mmHg
same,"BP, % changes vs. prevalues","time 210 min, sesquihydrate",97.4% and 102.9% and 94.4%
same,PAP(mean),"time 210 min, sesquihydrate",24.3 mmHg and 31.0 mmHg and 23.5 mmHg
same,"PAP, % changes vs. prevalues","time 210 min, sesquihydrate",58.3% and 78.3%
same,BP (mean),time 220 min,97 mmHg
same,BP (mean),"time 220 min, sesquihydrate",118 mmHg and 111 mmHg
same,"BP, % changes vs. prevalues","time 220 min, sesquihydrate",97.4% and 102.0% and 93.5%
same,PAP(mean),"time 220 min, sesquihydrate",24.2 mmHg and 31.3 mmHg and 22.9 mmHg
same,"PAP, % changes vs. prevalues","time 220 min, sesquihydrate",58.3% and 79.0% and 56.8%
same,BP (mean),time 230 min,96 mmHg
same,BP (mean),"time 230 min, sesquihydrate",116 mmHg and 112 mmHg
same,"BP, % changes vs. prevalues","time 230 min, sesquihydrate",96.4% and 100.3% and 94.4%
same,PAP(mean),"time 230 min, sesquihydrate",24.0 mmHg and 31.5 mmHg and 23.5 mmHg
same,"PAP, % changes vs. prevalues","time 230 min, sesquihydrate",57.8% and 79.6% and 58.3%
same,BP (mean),time 240 min,99 mmHg
same,BP (mean),"time 240 min, sesquihydrate",115 mmHg and 109 mmHg
same,"BP, % changes vs. prevalues","time 240 min, sesquihydrate",99.4% and 91.8%
same,PAP(mean),"time 240 min, sesquihydrate",24.5 mmHg and 29.8 mmHg and 22.6 mmHg
same,"PAP, % changes vs. prevalues","time 240 min, sesquihydrate",58.9% and 75.3% and 56.1%
same,BP (mean),"time 250 min, sesquihydrate",97 mmHg and 111 mmHg and 110 mmHg
same,"BP, % changes vs. prevalues","time 250 min, sesquihydrate",97.4% and 96.0% and 92.7%
same,PAP(mean),"time 250 min, sesquihydrate",23.9 mmHg and 29.8 mmHg and 22.8 mmHg
same,"PAP, % changes vs. prevalues","time 250 min, sesquihydrate",57.4% and 75.3% and 56.6%
same,BP (mean),"time 260 min, sesquihydrate",97 mmHg and 110 mmHg and 107 mmHg
same,"BP, % changes vs. prevalues","time 260 min, sesquihydrate",97.4% and 95.1% and 90.2%
same,PAP(mean),"time 260 min, sesquihydrate",23.5 mmHg and 30.3 mmHg and 22.0 mmHg
same,"PAP, % changes vs. prevalues","time 260 min, sesquihydrate",56.4% and 76.5% and 54.6%
same,BP (mean),time 270 min,98 mmHg
same,BP (mean),"time 270 min, sesquihydrate",109 mmHg and 108 mmHg
same,"BP, % changes vs. prevalues","time 270 min, sesquihydrate",98.4% and 94.2% and 91.0%
same,PAP(mean),"time 270 min, sesquihydrate",24.6 mmHg and 30.0 mmHg and 22.2 mmHg
same,"PAP, % changes vs. prevalues","time 270 min, sesquihydrate",59.1% and 75.7% and 55.2%
same,BP (mean),time 280 min,97 mmHg
same,BP (mean),"time 280 min, sesquihydrate",109 mmHg and 105 mmHg
same,"BP, % changes vs. prevalues","time 280 min, sesquihydrate",97.4% and 94.2% and 88.5%
same,PAP(mean),"time 280 min, sesquihydrate",23.9 mmHg and 29.6 mmHg and 21.9 mmHg
same,"PAP, % changes vs. prevalues","time 280 min, sesquihydrate",57.4% and 74.6% and 54.4%
same,BP (mean),time 290 min,94 mmHg
same,BP (mean),"time 290 min, sesquihydrate",108 mmHg and 105 mmHg
same,"BP, % changes vs. prevalues","time 290 min, sesquihydrate",94.4% and 93.4% and 85.9%
same,PAP(mean),"time 290 min, sesquihydrate",25.3 mmHg and 29.1 mmHg and 22.5 mmHg
same,"PAP, % changes vs. prevalues","time 290 min, sesquihydrate",60.8% and 73.3% and 55.8%
same,BP (mean),time 300 min,97 mmHg
same,BP (mean),"time 300 min, sesquihydrate",108 mmHg and 105 mmHg
same,"BP, % changes vs. prevalues","time 300 min, sesquihydrate",101.4% and 90.8% and 84.3%
same,PAP(mean),"time 300 min, sesquihydrate",25.1 mmHg and 28.5 mmHg and 21.6 mmHg
same,"PAP, % changes vs. prevalues","time 300 min, sesquihydrate",60.3% and 72.0% and 53.7%

# — patent publication US12202805B2, “Process for preparing (5S)-{[2-(4-carboxyphenyl)ethyl] |2-(2-{|3-chloro-4'-(trifluoromethyl)biphenyl-4-yl]methoxy}phenyl)ethyl]aminol-5,6,7,8-tetrahydroquinoline-2-carboxylic acid and its crystalline forms for use as pharmaceutically active compound” (Bayer Aktiengesellschaft, priority 2021, dated 2025)
